Laboratory results: article PMC7026659
Where a chain is given by its changes, count along the chain named. Results are given in words; binding and its absence hold for the method and conditions named. In cells and extracts the contact can be indirect. Some binding calls cover weakened binding; strength is not graded here. Sequences can lack the tags named with a protein.

What was measured:
GFP-RAD52 WT (human) [1] = molecular target: T1, GFP-RAD52 WT (human) (UniProt P43351); test: co-IP; as a1, with cell lysates treated with ethidium bromide (0.1 mg/ml) for 30 min
T1 sequence: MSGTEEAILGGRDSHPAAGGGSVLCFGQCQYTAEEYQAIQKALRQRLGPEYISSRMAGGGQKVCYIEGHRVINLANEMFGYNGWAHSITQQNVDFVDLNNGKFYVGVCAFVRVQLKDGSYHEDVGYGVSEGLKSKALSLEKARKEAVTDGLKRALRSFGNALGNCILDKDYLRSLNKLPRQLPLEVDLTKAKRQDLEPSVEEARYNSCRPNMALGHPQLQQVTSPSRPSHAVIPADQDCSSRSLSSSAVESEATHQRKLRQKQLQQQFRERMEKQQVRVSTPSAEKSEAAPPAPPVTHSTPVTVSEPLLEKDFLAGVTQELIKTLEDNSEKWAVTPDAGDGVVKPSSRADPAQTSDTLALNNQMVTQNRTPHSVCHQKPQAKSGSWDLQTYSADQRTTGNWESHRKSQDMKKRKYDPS

GFP-RAD52-K141A (human) = molecular target: T2, GFP-RAD52-K141A (human) (UniProt P43351); test: co-IP; anti-GFP immunoprecipitation (anti-GFP monoclonal antibody and protein G-Sepharose, 4°C overnight) of GFP-RAD52 from lysates of Flp-in TREX KR-TRF1 293 cells; KR-TRF1 induced with tetracycline 2 μg/ml for 24 h; cells exposed to light for 1 h and recovered for 3 h; POLD3 found by western blot
T2 sequence: T1 sequence with K141A

GFP-RAD52-K144A (human) = molecular target: T3, GFP-RAD52-K144A (human) (UniProt P43351); test: as above
T3 sequence: T1 sequence with K144A

GFP-RAD52 WT (human) [2] = molecular target: T1, GFP-RAD52 WT (human); test: as above

binding (GFP-RAD52 WT (human) [1]): binds
binding (GFP-RAD52-K141A (human)): binds
binding (GFP-RAD52-K144A (human)): binds
binding (GFP-RAD52 WT (human) [2]): binds
B1: POLD3 (protein, UniProt Q15054 1-466)
chain: MADQLYLENIDEFVTDQNKIVTYKWLSYTLGVHVNQAKQMLYDYVERKRKENSGAQLHVTYLVSGSLIQNGHSCHKVAVVREDKLEAVKSKLAVTASIHVYSIQKAMLKDSGPLFNTDYDILKSNLQNCSKFSAIQCAAAVPRAPAESSSSSKKFEQSHLHMSSETQANNELTTNGHGPPASKQVSQQPKGIMGMFASKAAAKTQETNKETKTEAKEVTNASAAGNKAPGKGNMMSNFFGKAAMNKFKVNLDSEQAVKEEKIVEQPTVSVTEPKLATPAGLKKSSKKAEPVKVLQKEKKRGKRVALSDDETKETENMRKKRRRIKLPESDSSEDEVFPDSPGAYEAESPSPPPPPSPPLEPVPKTEPEPPSVKSSSGENKRKRKRVLKSKTYLDGEGCIVTEKVYESESCTDSEEELNMKTSSVHRPPAMTVKKEPREERKGPKKGTAALGKANRQVSITGFFQRK
